The assay concerns the target T1, Smc3-GFP (S. cerevisiae) (UniProt P47037).
T1 sequence: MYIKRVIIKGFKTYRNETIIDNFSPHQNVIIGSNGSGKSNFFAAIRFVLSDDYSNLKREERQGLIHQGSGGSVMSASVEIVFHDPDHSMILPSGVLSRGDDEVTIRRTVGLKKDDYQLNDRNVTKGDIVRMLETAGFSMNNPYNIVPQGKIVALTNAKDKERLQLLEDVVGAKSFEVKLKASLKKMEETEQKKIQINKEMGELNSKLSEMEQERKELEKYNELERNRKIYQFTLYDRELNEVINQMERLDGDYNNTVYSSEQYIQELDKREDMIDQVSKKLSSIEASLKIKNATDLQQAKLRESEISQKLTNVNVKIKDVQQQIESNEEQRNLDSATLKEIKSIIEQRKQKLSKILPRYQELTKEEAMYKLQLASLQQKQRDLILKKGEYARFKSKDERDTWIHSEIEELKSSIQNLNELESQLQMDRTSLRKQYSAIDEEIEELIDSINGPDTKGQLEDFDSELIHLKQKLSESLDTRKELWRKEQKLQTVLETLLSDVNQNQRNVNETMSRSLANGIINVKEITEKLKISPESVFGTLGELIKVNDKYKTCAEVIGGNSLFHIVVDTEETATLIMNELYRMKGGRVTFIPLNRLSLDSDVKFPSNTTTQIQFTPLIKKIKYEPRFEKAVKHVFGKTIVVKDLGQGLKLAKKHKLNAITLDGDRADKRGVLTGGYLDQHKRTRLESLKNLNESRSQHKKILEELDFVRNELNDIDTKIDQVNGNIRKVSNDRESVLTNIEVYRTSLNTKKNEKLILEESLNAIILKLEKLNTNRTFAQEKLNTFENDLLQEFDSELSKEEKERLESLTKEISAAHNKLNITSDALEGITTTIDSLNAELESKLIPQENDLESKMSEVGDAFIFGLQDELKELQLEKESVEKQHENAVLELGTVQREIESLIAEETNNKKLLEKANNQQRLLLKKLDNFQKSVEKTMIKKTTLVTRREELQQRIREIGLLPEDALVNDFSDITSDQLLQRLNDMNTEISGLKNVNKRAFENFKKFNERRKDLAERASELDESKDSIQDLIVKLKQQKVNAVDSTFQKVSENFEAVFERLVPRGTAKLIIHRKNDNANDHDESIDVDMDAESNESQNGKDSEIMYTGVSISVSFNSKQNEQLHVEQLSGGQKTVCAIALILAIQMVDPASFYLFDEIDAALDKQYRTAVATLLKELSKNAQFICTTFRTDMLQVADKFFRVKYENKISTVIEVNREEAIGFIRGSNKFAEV
The assay can be described thus: MST; binding mode (no constants); yeast protein extract with Smc3-GFP (20 nM total cellular protein) mixed with CIP3-TAT (5 uM in the methods, 10 uM in the results); MST buffer with 0.05% Tween-20; Monolith NT.115; only the binder purified.

These are yes or no findings as the source states them, for the method shown. Some entries that bind do so weakly or less than the wild type. Sequences can lack the tags named with a protein.

Turning to KRFKDMEYLSGGEKTGGYGRKKRRQRRR [CIP3-TAT], the binding result was “binds”.

The values above are taken from paper PMC10470313, “Developing a peptide to disrupt cohesin head domain interactions” (iScience, 2023).
